No constants are given. Whether binding was seen depends on the method and setting. In cells and extracts the contact can be indirect. Some results given as binding are weak or reduced against the parent protein; the word gives no strength.

Protein sequences, listed by entry. Tags and fused reporters are not part of them.
UniProt Q9Z329: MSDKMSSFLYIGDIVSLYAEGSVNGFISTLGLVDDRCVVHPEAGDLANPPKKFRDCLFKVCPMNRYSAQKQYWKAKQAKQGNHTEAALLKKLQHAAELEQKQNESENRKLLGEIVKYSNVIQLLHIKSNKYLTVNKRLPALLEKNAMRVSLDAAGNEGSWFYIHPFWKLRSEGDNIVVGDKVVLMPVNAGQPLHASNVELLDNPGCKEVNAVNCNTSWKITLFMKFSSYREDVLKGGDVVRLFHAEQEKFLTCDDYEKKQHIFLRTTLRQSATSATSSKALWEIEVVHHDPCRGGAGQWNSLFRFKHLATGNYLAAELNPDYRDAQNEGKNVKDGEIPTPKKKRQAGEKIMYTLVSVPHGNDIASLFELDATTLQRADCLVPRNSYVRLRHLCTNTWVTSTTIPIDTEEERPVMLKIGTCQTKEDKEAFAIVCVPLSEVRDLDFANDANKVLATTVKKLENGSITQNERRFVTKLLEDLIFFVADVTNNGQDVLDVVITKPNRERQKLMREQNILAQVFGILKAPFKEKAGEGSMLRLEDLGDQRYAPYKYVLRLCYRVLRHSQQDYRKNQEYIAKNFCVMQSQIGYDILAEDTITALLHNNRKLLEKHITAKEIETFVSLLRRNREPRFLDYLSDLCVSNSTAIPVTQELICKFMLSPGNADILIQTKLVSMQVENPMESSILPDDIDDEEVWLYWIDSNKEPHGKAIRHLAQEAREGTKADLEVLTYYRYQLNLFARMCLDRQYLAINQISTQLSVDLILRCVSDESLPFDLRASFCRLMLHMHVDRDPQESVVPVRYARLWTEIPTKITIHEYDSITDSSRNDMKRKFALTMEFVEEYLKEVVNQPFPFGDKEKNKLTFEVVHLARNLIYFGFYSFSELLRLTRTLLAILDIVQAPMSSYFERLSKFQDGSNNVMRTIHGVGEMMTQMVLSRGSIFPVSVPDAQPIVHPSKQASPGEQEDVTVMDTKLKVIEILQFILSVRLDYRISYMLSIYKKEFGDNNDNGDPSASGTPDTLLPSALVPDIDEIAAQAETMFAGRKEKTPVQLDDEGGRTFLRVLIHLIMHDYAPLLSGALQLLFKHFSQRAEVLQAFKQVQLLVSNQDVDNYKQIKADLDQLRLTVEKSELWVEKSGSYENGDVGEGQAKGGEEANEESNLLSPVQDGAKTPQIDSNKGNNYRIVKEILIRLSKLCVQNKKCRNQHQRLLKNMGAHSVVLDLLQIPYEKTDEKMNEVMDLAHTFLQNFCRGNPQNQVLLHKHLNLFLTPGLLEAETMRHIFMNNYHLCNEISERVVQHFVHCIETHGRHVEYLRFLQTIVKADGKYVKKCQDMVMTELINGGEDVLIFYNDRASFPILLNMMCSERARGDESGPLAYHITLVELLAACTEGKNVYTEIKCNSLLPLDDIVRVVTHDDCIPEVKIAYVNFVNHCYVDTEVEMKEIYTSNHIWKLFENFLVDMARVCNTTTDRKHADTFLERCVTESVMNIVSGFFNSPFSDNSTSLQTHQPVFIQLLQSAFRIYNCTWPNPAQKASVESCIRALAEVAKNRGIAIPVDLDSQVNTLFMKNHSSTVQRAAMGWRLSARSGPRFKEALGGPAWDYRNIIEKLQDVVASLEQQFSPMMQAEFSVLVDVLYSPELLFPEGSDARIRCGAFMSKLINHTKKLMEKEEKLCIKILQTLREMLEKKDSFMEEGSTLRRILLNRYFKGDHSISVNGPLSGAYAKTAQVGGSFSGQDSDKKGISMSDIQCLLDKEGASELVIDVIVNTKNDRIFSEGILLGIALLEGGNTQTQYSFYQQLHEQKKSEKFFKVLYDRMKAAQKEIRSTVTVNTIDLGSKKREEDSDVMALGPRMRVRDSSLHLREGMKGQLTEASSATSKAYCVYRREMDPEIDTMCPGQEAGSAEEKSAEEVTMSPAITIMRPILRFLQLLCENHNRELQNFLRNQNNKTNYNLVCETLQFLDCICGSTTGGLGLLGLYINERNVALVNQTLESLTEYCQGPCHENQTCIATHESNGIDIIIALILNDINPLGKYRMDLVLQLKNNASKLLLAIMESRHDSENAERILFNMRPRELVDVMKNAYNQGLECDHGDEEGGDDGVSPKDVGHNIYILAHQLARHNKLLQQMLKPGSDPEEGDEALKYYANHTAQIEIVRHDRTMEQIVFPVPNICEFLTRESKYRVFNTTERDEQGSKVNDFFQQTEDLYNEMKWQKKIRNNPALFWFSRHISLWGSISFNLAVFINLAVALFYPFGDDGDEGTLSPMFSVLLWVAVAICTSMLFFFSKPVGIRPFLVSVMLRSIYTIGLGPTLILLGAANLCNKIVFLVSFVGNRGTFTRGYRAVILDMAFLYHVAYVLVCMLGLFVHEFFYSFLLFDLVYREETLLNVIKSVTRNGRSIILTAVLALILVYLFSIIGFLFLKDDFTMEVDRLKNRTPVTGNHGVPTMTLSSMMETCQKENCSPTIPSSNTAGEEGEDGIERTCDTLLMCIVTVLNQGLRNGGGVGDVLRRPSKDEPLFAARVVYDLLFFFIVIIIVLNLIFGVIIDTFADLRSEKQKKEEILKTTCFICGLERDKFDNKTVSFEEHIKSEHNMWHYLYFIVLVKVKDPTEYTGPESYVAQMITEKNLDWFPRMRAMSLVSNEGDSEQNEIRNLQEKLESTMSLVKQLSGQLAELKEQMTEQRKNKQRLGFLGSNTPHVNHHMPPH
UniProt P70227: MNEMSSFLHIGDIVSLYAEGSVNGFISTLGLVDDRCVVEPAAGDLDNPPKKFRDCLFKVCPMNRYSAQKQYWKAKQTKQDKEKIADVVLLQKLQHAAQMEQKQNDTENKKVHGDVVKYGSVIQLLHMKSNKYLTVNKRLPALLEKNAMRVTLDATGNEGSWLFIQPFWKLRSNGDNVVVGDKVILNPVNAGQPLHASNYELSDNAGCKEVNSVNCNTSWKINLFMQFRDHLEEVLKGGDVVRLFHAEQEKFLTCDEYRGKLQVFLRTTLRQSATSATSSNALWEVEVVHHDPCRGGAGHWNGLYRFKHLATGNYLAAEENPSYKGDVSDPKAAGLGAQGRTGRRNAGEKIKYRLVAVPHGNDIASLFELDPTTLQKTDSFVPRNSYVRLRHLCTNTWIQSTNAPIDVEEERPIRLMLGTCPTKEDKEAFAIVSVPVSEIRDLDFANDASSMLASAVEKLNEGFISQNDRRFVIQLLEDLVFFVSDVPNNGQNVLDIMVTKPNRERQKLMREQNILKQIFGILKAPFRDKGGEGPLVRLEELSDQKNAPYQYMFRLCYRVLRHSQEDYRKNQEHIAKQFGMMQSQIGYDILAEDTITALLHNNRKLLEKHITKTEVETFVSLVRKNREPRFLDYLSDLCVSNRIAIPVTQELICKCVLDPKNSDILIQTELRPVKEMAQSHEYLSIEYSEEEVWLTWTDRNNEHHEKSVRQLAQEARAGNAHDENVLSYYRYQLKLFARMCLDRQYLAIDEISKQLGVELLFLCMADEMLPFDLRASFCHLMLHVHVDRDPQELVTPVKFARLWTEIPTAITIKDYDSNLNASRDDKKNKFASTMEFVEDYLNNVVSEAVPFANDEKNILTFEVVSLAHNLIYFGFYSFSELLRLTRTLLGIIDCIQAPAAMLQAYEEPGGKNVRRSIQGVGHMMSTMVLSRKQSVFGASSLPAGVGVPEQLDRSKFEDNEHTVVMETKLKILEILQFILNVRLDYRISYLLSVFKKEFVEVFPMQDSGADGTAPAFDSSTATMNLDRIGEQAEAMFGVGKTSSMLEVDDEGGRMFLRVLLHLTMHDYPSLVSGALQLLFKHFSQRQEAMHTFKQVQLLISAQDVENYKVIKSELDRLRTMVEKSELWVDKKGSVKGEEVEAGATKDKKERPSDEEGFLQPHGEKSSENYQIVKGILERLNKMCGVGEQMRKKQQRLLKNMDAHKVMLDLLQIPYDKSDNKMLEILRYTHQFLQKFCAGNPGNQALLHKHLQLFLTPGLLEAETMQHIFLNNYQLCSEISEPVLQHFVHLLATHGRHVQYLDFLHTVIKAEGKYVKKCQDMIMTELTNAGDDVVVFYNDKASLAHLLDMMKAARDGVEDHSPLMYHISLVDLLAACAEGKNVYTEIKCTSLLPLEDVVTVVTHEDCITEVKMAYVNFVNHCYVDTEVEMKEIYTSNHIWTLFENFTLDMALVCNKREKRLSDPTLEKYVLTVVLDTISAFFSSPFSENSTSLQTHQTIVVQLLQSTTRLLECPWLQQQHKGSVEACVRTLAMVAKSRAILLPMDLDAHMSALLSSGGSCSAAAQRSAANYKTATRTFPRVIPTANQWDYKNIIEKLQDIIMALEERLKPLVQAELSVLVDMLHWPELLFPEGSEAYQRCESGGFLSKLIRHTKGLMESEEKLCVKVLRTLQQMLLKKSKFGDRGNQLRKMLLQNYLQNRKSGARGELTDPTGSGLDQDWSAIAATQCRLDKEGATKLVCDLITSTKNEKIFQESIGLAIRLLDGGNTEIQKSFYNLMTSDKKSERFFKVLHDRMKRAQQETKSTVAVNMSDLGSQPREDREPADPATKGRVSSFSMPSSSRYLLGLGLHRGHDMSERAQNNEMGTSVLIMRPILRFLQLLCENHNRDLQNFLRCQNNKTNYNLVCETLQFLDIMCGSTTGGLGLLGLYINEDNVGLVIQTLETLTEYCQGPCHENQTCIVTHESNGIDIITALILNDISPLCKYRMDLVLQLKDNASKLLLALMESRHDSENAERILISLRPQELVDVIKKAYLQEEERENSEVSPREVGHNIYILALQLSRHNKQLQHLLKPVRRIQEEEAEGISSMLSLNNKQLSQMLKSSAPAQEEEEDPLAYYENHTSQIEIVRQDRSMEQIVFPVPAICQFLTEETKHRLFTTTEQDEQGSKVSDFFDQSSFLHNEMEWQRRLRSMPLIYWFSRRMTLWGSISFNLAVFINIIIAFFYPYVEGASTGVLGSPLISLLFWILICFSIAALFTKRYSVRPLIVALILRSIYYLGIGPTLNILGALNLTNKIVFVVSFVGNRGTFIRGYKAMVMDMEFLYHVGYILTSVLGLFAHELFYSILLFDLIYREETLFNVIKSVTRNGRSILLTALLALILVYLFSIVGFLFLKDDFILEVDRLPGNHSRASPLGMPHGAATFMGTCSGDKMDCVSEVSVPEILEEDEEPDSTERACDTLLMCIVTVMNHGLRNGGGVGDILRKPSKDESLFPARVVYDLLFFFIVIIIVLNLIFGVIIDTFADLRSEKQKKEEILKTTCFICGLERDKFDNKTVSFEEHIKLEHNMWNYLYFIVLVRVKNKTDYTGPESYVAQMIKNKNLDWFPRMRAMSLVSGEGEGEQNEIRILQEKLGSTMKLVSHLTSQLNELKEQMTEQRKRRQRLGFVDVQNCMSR

This assay has as its target T1, inositol 1,4,5-triphosphate receptor-associated 2 (IRAG2) (mouse (endogenous in pancreas)) (UniProt Q60664).
T1 sequence: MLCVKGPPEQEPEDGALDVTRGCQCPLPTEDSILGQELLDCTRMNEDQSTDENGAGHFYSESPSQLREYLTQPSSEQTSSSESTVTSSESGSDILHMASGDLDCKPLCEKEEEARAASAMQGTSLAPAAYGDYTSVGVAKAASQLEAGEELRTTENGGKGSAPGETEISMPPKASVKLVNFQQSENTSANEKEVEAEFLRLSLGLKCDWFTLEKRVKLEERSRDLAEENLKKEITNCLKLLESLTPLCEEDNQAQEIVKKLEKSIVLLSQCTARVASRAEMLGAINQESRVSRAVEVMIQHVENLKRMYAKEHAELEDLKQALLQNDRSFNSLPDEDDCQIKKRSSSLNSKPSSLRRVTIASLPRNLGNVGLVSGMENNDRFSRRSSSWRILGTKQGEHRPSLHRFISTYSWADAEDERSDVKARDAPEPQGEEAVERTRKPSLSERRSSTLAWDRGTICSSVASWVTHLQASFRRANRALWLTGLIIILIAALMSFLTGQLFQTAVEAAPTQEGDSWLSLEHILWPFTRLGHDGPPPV
Nature of the assay: co-IP; pancreas lysates of IRAG2-WT and IRAG2-KO mice; IRAG2 precipitated with 1 µg anti-IRAG2 (anti-mouse LRMP, C-terminal) antibody and Protein-A-Sepharose beads; buffer 50 mM Tris HCl, 15 mM EGTA, 100 mM NaCl, 0.1% Triton X-100, pH 7.5, 1 mM DTT; overnight at 4 °C; partners detected by Western blot. A general note: Immunoblotting shows a protein as a band on a membrane.
In the case of “inositol trisphosphate receptor type 2 (IP3R2) (from UniProt Q9Z329 1-2701)”, the binding result is “binds”.

As to “inositol trisphosphate receptor type 3 (IP3R3) (from UniProt P70227 1-2670)”, the binding result is on record as “binds”.

Turning to “inositol trisphosphate receptor type 1 (IP3R1) (from UniProt P11881 1-2749)”, the binding result is reported as “binds”.

These data come from publication PMC8707672.
